Experimental data published in patent publication US20130338130A1 (priority 2009, published 2013).
Where “and” joins values, the source holds several entries; their conditions need not be identical. Equal entries are not always repeated. Where two headings read alike, the source gives them in different places. Further values from the same series stand in other lists.

System: ATCC strain 43300 Staphylococcus aureus
Settings: for survival (cfu/ml): triplicate platings
[1] = 12 μg/ml oxacillin + MSM (% in label), 120 hours, listed as 8% MSM
[2] = 12 μg/ml oxacillin + MSM (% in label), 120 hours, listed as 9% MSM
[3] = 12 μg/ml oxacillin + MSM (% in label), 120 hours, listed as 10% MSM
[4] = 12 μg/ml oxacillin + MSM (% in label), 120 hours, listed as 11% MSM
[5] = 12 μg/ml oxacillin + MSM (% in label), 120 hours, listed as 12% MSM
[6] = 12 μg/ml oxacillin + MSM (% in label), 120 hours, listed as 13% MSM
[7] = 12 μg/ml oxacillin + MSM (% in label), 120 hours, listed as 14% MSM
[8] = 12 μg/ml oxacillin + MSM (% in label), 120 hours, listed as 15% MSM
[9] = 12 μg/ml oxacillin + MSM (% in label), 120 hours, listed as 16% MSM

CS(C)(=O)=O [MSM, Methylsulfonylmethane]
survival, Average Log [1]: 5.5 Log | survival, Average Log [2]: 5.5 Log | survival, Average Log [3]: 5.5 Log | survival, Average Log [4]: 5.5 Log | survival, Average Log [5]: 5.5 Log | survival, Average Log [6]: 3.8 Log | survival, Average Log [7]: 2.0 Log | survival, Average Log [8]: 2.0 Log | survival, Average Log [9]: 1.5 Log | survival (cfu/ml) (12 μg/ml oxacillin + MSM (% in label), 120 hours, listed as 5% MSM): >3.3 × 10^5 cfu/ml | survival (cfu/ml) (12 μg/ml oxacillin + MSM (% in label), 120 hours, listed as 6% MSM): >3.3 × 10^5 cfu/ml | survival (cfu/ml) (12 μg/ml oxacillin + MSM (% in label), 120 hours, listed as 7% MSM): >3.3 × 10^5 cfu/ml | survival (cfu/ml) [1]: >3.3 × 10^5 cfu/ml | survival (cfu/ml) [2]: >3.3 × 10^5 cfu/ml | survival (cfu/ml) [3]: >3.3 × 10^5 cfu/ml | survival (cfu/ml) [4]: >3.3 × 10^5 cfu/ml | survival (cfu/ml) [5]: >3.3 × 10^5 cfu/ml | survival (cfu/ml) [6]: 6.2 × 10^3 cfu/ml and 6.7 × 10^3 cfu/ml | survival (cfu/ml) [7]: 1.1 × 10^2 cfu/ml and 1.2 × 10^2 cfu/ml | survival (cfu/ml) [8]: 1.1 × 10^2 cfu/ml and 1.3 × 10^2 cfu/ml and 1.2 × 10^2 cfu/ml | survival (cfu/ml) [9]: 3.0 × 10^1 cfu/ml and 2.0 × 10^1 cfu/ml | survival (cfu/ml) (30 μg/ml oxacillin + MSM (% in label), 24 hours, listed as 5% MSM): 3.1 × 10^2 cfu/ml and 3.3 × 10^2 cfu/ml | survival (cfu/ml) (30 μg/ml oxacillin + MSM (% in label), 24 hours, listed as 6% MSM): 2.9 × 10^2 cfu/ml | survival (cfu/ml) (30 μg/ml oxacillin + MSM (% in label), 24 hours, listed as 7% MSM): 9.7 × 10^2 cfu/ml and 9.6 × 10^2 cfu/ml and 9.2 × 10^2 cfu/ml | survival (cfu/ml) (30 μg/ml oxacillin + MSM (% in label), 24 hours, listed as 8% MSM): 1.18 × 10^3 cfu/ml and 1.16 × 10^3 cfu/ml | survival (cfu/ml) (30 μg/ml oxacillin + MSM (% in label), 24 hours, listed as 9% MSM): 1.06 × 10^3 cfu/ml and 1.05 × 10^3 cfu/ml and 1.02 × 10^3 cfu/ml | survival (cfu/ml) (30 μg/ml oxacillin + MSM (% in label), 24 hours, listed as 10% MSM): 2.2 × 10^3 cfu/ml and 2.0 × 10^3 cfu/ml | survival (cfu/ml) (30 μg/ml oxacillin + MSM (% in label), 24 hours, listed as 11% MSM): 3.9 × 10^3 cfu/ml and 3.7 × 10^3 cfu/ml | survival (cfu/ml) (30 μg/ml oxacillin + MSM (% in label), 24 hours, listed as 12% MSM): 3.9 × 10^3 cfu/ml | survival (cfu/ml) (30 μg/ml oxacillin + MSM (% in label), 24 hours, listed as 13% MSM): 4.4 × 10^3 cfu/ml and 4.1 × 10^3 cfu/ml and 4.2 × 10^3 cfu/ml | survival (cfu/ml) (30 μg/ml oxacillin + MSM (% in label), 24 hours, listed as 14% MSM): 6.1 × 10^3 cfu/ml and 6.0 × 10^3 cfu/ml | survival (cfu/ml) (30 μg/ml oxacillin + MSM (% in label), 24 hours, listed as 15% MSM): 8.7 × 10^3 cfu/ml and 8.9 × 10^3 cfu/ml and 8.8 × 10^3 cfu/ml | survival (cfu/ml) (30 μg/ml oxacillin + MSM (% in label), 24 hours, listed as 16% MSM): 8.3 × 10^3 cfu/ml and 8.0 × 10^3 cfu/ml | survival (cfu/ml) (30 μg/ml oxacillin + MSM (% in label), 48 hours, listed as 5% MSM): 5.8 × 10^3 cfu/ml and 6.0 × 10^3 cfu/ml and 5.9 × 10^3 cfu/ml | survival (cfu/ml) (30 μg/ml oxacillin + MSM (% in label), 48 hours, listed as 6% MSM): 5.5 × 10^3 cfu/ml and 5.9 × 10^3 cfu/ml | survival (cfu/ml) (30 μg/ml oxacillin + MSM (% in label), 48 hours, listed as 7% MSM): 2.0 × 10^2 cfu/ml and 2.1 × 10^2 cfu/ml and 2.2 × 10^2 cfu/ml | survival (cfu/ml) (30 μg/ml oxacillin + MSM (% in label), 48 hours, listed as 8% MSM): 1.23 × 10^3 cfu/ml and 1.24 × 10^3 cfu/ml and 1.20 × 10^3 cfu/ml | survival (cfu/ml) (30 μg/ml oxacillin + MSM (% in label), 48 hours, listed as 9% MSM): 2.8 × 10^2 cfu/ml and 2.6 × 10^2 cfu/ml and 2.2 × 10^2 cfu/ml | survival (cfu/ml) (30 μg/ml oxacillin + MSM (% in label), 48 hours, listed as 10% MSM): 4.3 × 10^2 cfu/ml and 4.0 × 10^2 cfu/ml | survival (cfu/ml) (30 μg/ml oxacillin + MSM (% in label), 48 hours, listed as 11% MSM): 2.5 × 10^2 cfu/ml and 2.7 × 10^2 cfu/ml and 2.8 × 10^2 cfu/ml | survival (cfu/ml) (30 μg/ml oxacillin + MSM (% in label), 48 hours, listed as 12% MSM): 3.9 × 10^2 cfu/ml and 3.6 × 10^2 cfu/ml and 4.0 × 10^2 cfu/ml | survival (cfu/ml) (30 μg/ml oxacillin + MSM (% in label), 48 hours, listed as 13% MSM): 3.0 × 10^2 cfu/ml and 3.1 × 10^2 cfu/ml | survival (cfu/ml) (30 μg/ml oxacillin + MSM (% in label), 48 hours, listed as 14% MSM): 3.6 × 10^2 cfu/ml and 3.2 × 10^2 cfu/ml and 3.5 × 10^2 cfu/ml | survival (cfu/ml) (30 μg/ml oxacillin + MSM (% in label), 48 hours, listed as 15% MSM): 6.2 × 10^2 cfu/ml and 6.4 × 10^2 cfu/ml | survival (cfu/ml) (30 μg/ml oxacillin + MSM (% in label), 48 hours, listed as 16% MSM): 4.6 × 10^2 cfu/ml and 4.0 × 10^2 cfu/ml and 4.1 × 10^2 cfu/ml | survival (cfu/ml) (30 μg/ml oxacillin + MSM (% in label), 72 hours, listed as 5% MSM): >3.3 × 10^5 cfu/ml | survival (cfu/ml) (30 μg/ml oxacillin + MSM (% in label), 72 hours, listed as 6% MSM): >3.3 × 10^5 cfu/ml | survival (cfu/ml) (30 μg/ml oxacillin + MSM (% in label), 72 hours, listed as 7% MSM): 3.6 × 10^4 cfu/ml and 3.2 × 10^4 cfu/ml | survival (cfu/ml) (30 μg/ml oxacillin + MSM (% in label), 72 hours, listed as 8% MSM): >3.3 × 10^5 cfu/ml | survival (cfu/ml) (30 μg/ml oxacillin + MSM (% in label), 72 hours, listed as 9% MSM): 8.8 × 10^2 cfu/ml and 8.1 × 10^2 cfu/ml and 8.5 × 10^2 cfu/ml | survival (cfu/ml) (30 μg/ml oxacillin + MSM (% in label), 72 hours, listed as 10% MSM): 8.9 × 10^3 cfu/ml and 9.0 × 10^3 cfu/ml and 8.5 × 10^3 cfu/ml | survival (cfu/ml) (30 μg/ml oxacillin + MSM (% in label), 72 hours, listed as 11% MSM): 1.2 × 10^3 cfu/ml and 1.7 × 10^3 cfu/ml and 1.5 × 10^3 cfu/ml | survival (cfu/ml) (30 μg/ml oxacillin + MSM (% in label), 72 hours, listed as 12% MSM): 4.8 × 10^2 cfu/ml and 3.9 × 10^2 cfu/ml and 4.9 × 10^2 cfu/ml | survival (cfu/ml) (30 μg/ml oxacillin + MSM (% in label), 72 hours, listed as 14% MSM): 1.4 × 10^2 cfu/ml and 1.7 × 10^2 cfu/ml and 1.8 × 10^2 cfu/ml | survival (cfu/ml) (30 μg/ml oxacillin + MSM (% in label), 72 hours, listed as 15% MSM): 2.3 × 10^2 cfu/ml and 2.2 × 10^2 cfu/ml and 2.8 × 10^2 cfu/ml | survival (cfu/ml) (30 μg/ml oxacillin + MSM (% in label), 72 hours, listed as 16% MSM): 9 × 10^1 cfu/ml and 8.0 × 10^1 cfu/ml | survival, Average Log (30 μg/ml oxacillin + MSM (% in label), 96 hours, listed as 5% MSM): 5.5 Log | survival, Average Log (30 μg/ml oxacillin + MSM (% in label), 96 hours, listed as 6% MSM): 5.5 Log | survival, Average Log (30 μg/ml oxacillin + MSM (% in label), 96 hours, listed as 7% MSM): 5.5 Log | survival, Average Log (30 μg/ml oxacillin + MSM (% in label), 96 hours, listed as 8% MSM): 5.5 Log | survival, Average Log (30 μg/ml oxacillin + MSM (% in label), 96 hours, listed as 9% MSM): 4.0 Log | survival, Average Log (30 μg/ml oxacillin + MSM (% in label), 96 hours, listed as 10% MSM): 5.5 Log | survival, Average Log (30 μg/ml oxacillin + MSM (% in label), 96 hours, listed as 11% MSM): 5.5 Log
